Patent US9650497B2, “Phosphonamidates-synthesis and flame retardant applications” (EMPA EIDGENOSSISCHE MATERIALPRUFUNGS- UND FORSCHUNGSANSTALT, priority 2011, dated 2017)
Some results were stated once for a whole list of compounds, not compound by compound.

Experiment: TGA thermal decomposition of DOPO and amino DOPO derivatives
Format: physicochemical
Settings: suitability for melt processing
Protocol: One of the important objectives of developing various amino derivatives of DOPO was to improve the thermal stability of DOPO itself. This will ensure their suitability to be used in thermoplastic polymers which require usually high processing temperatures (200-350° C.).

SMILES | thermal stability
O=P1(NCCNP2(=O)Oc3ccccc3-c3ccccc32)Oc2ccccc2-c2ccccc21 (centres unmarked) [EDAB-DOPO] | above 300 °C
O=P1(N2CCN(P3(=O)Oc4ccccc4-c4ccccc43)CC2)Oc2ccccc2-c2ccccc21 (centres unmarked) [PB-DOPO] | above 300 °C
